Assay results as given in PubChem BioAssay AID493014 (National Center for Advancing Translational Sciences (NCATS), 2011).
Some of the results follow. These are further read-outs of the screen, such as a control signal, another cell line or another target. No call is given for them. Compounds called inactive in the main read-out are mostly missing here. The note in brackets gives the kind of curve behind each potency; many fits are weak.

Assay: qHTS Assay to Find Inhibitors of Chronic Active B-Cell Receptor Signaling
Settings: ABC-DLBCL IkBa-CBG/CBR reporter, luminescence ratio (green luciferase fused to IkBa over red control in TMD8 lymphoma cells), 4 h
Summary of the method: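 TMD8 human ABC-DLBCL cells with doxycycline-inducible IκBα–green luciferase fusion and unfused red luciferase, in 0.5% FBS medium; compounds up to 46 uM, 4 h at 37C. Green/red luminescence ratio, filter-overlap corrected, fitted to concentration-response curves.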

[1] = measured here: CBR red luminescence, cell number

Row | SMILES | AC50 [1] | AC50 (measured here: IkBa-CBG green luminescence)
1 | COc1cccc(CNCCNC(=O)c2ccco2)c1OC | 0.82 µM [rising, full curve, poor fit] | 
2 | Cn1cc(CC(=O)N2CCN(c3ccc(Cl)cc3)CC2)c2ccccc21 | 5.17 µM [rising, full curve] | 
3 | Cc1ccc(NCc2ccco2)cc1C | 12.6 µM [rising, single point] | 
4 | O=C(NCCc1c[nH]c2ccccc12)c1c(Cl)nc2sccn12 | 0.562 µM [rising, full curve, poor fit] | 
5 | O=S(=O)(c1ccc(Cl)nc1)N(Cc1ccccc1)Cc1ccccc1 | 4.11 µM [falling, full curve] | 
6 | COC(=O)c1ccccc1S(=O)(=O)N1CCC(C(=O)NC2CCCCC2C)CC1 (configuration not stated) | 0.164 µM [rising, full curve, poor fit] | 
7 | COc1ccc(C(=O)N/C(=C/c2cccs2)c2nc3ccccc3[nH]2)cc1OC | 20.6 µM [rising, partial curve] | 
8 | O=C(Nn1c(O)c(C=C2N=c3ccccc3=N2)sc1=S)c1cccc(Cl)c1 | 7.08 µM [falling, partial curve] | 
9 | COc1cc(NC(=O)CN2CCN(c3ccccc3F)CC2)c(C)cc1[N+](=O)[O-] | 1.3 µM [rising, full curve, poor fit] | 
10 | COc1ccc(-n2c(=O)n(Cc3ccccc3)c(=O)c3[nH]cnc32)cc1 | 11.2 µM [falling, partial curve, poor fit] | 
11 | CCOC(=O)c1nc2ccccc2c(=O)[nH]1 | 25.1 µM [falling, single point] | 
12 | Cc1cc(C(=O)COC(=O)c2cccs2)c(C)n1-c1c(C)n(C)n(-c2ccccc2)c1=O | 2.24 µM [falling, partial curve] | 
13 | O=c1c2c(-c3ccccc3)csc2nc2c3ccccc3c(NCCN3CCOCC3)nn12 | 25.1 µM [falling, single point] | 
14 | O=C(COc1ccc(Br)cc1Cl)NC(=O)NC1CCCC1 | 10.3 µM [falling, single point] | 
15 | CC(C)(C)C(=O)/C=c1\[nH]c(=O)/c(=C\c2ccc(C#N)cc2)s1 | 2.82 µM [rising, partial curve, poor fit] | 
16 | O=C(CSc1nnc(-c2ccccc2)n1Cc1ccco1)NCc1ccc2c(c1)OCO2 | 0.206 µM [rising, full curve] | 
17 | COc1c(C)cc(C(=O)C2CCCN(S(=O)(=O)N(C)C)C2)cc1C (configuration not stated) | 3.16 µM [rising, partial curve, poor fit] | 
18 | C=CCN1C(=O)C(Cc2cccc(Cl)c2)S/C1=N/N=C/c1ccco1 (configuration not stated) | 8.2 µM [rising, partial curve, poor fit] | 
19 | CCOc1ccccc1NC(=O)CCS(=O)(=O)c1cccc2nsnc12 | 35.5 µM [falling, partial curve, poor fit] | 
20 | O=C(Nc1ccc(N2CCOCC2)cc1)Nc1cnsn1 | 20.6 µM [falling, single point] | 
21 | CC1(C)CC(=O)C2=C(C1)OC1=C(C(=O)CC(C)(C)C1)C2c1ccc(O)cc1O | 35.5 µM [falling, single point] | 

Row | SMILES | AC50 [1] | AC50 (measured here: IkBa-CBG green luminescence)
22 | CCCN1CC=C2C(C#N)=C(N)C(C#N)(C#N)C(c3cc(OC)ccc3OC)C2C1 (configuration not stated) | 35.5 µM [falling, partial curve, poor fit] | 
23 | O=C(c1cc(-c2ccc(Cl)cc2)on1)N1CCCC1 | 2.24 µM [falling, full curve] | 
24 | COc1cc(OC)c(C(=O)O/N=C(\N)c2cccc(C)c2)cc1OC | 3.55 µM [rising, partial curve] | 
25 | O=C(N/N=C/c1ccc(Cl)s1)c1ccccc1[N+](=O)[O-] | 5.62 µM [falling, partial curve, poor fit] | 
26 | Cc1ccc2nc(NC(=O)Cc3cccs3)sc2c1 | 5.8 µM [falling, partial curve, poor fit] | 
27 | CC(=O)Nc1ncnc2c1c(-c1ccc(Cl)cc1)nn2C(C)(C)C | 12.6 µM [falling, partial curve] | 
28 | O=C(Nc1ccc2c(c1)CCC2)c1cc2ccccc2o1 | 16.4 µM [falling, single point] | 
29 | CC(=O)Nc1ccc(NC(=O)CSC2=NS(=O)(=O)c3cc(F)ccc3N2)cc1 | 0.517 µM [falling, partial curve, poor fit] | 
30 | O=C(Nc1ccccc1)Nc1ccc2c(c1)CCC2 | 35.5 µM [falling, single point] | 
31 | COc1ccc2cc(C(=O)N/N=C/c3sc4ccccc4c3O)ccc2c1 | 20.6 µM [falling, partial curve] | 
32 | Cc1cc(NC(=O)COc2ccc3ccccc3c2)no1 | 1.58 µM [rising, partial curve, poor fit] | 
33 | COc1cc2sc(NC(=O)c3ccco3)nc2cc1Cl | 1.58 µM [falling, full curve, poor fit] | 
34 | Cc1nnc(NC(=O)c2sc3ccccc3c2Cl)s1 | 17.8 µM [falling, single point] | 
35 | CC(C)(C)CC(C)(C)c1ccc(O)c(CN2CCN(CCC#N)CC2)c1 | 32.6 µM [falling, single point] | 
36 | COCC(C)NC(=O)CSc1ncnc2sc(-c3ccccc3)cc12 (configuration not stated) | 0.112 µM [rising, full curve, poor fit] | 
37 | O=C1c2ccccc2C(=O)N1c1ccc(Cl)cc1 | 1.84 µM [falling, partial curve, poor fit] | 
38 | O=C(CSc1ccc(-c2ccccn2)nn1)N1CCCCC1 |  | 6.31 µM [rising, full curve, poor fit]
39 | COC(=O)c1ccc(NS(=O)(=O)c2cccc3cccnc23)cc1 | 5.17 µM [rising, full curve] | 
40 | COc1cc(C(=O)Nc2ccc(O)cc2C(=O)O)ccc1OC(C)=O | 1 µM [falling, full curve] | 
41 | COc1ccccc1CN(C)C(C)C(=O)Nc1cccc(C(C)=O)c1 (configuration not stated) | 20 µM [rising, single point] | 
42 | COc1cc(OC)cc(C(=O)NC2CCCN(Cc3ccc(Cl)cc3)C2)c1 (configuration not stated) | 25.1 µM [falling, single point] | 

One compound at a time, as listed above:
`CCCN1CC=C2C(C#N)=C(N)C(C#N)(C#N)C(c3cc(OC)ccc3OC)C2C1` (configuration not stated) is listed with AC50 [1]: 35.5 µM [falling, partial curve, poor fit]
`COc1cc2sc(NC(=O)c3ccco3)nc2cc1Cl` is listed with AC50 [1]: 1.58 µM [falling, full curve, poor fit]
